Results reported in ChEMBL document CHEMBL1136679, “Phenylacetic acid derivatives as hPPAR agonists” (Bioorg Med Chem Lett, 2003).

How the values were obtained:
in vivo [1] = conditions: male, Sprague-Dawley, rat, po, 10 mg/kg
in vivo [2] = conditions: male, Sprague-Dawley, rat, iv
in vivo [3] = conditions: male, Sprague-Dawley, rat, iv; remark: listed apart in the source

Question: What does the source list for CN(CCOc1ccc(CC2SC(=O)NC2=O)cc1)c1ccccn1 (stereo not drawn) [ROSIGLITAZONE]?
Answer: bioavailability (in vivo [1]): 64%; clearance (in vivo [2]): 0.156 L/h/kg; half-life (in vivo [3]): 3.8 h
